The results in this text go back to publication PMC6345199.

Protein sequences, listed by entry. Tags and fused reporters are not part of them. Residues count along the entry.
UniProt P23818, residues 19-907: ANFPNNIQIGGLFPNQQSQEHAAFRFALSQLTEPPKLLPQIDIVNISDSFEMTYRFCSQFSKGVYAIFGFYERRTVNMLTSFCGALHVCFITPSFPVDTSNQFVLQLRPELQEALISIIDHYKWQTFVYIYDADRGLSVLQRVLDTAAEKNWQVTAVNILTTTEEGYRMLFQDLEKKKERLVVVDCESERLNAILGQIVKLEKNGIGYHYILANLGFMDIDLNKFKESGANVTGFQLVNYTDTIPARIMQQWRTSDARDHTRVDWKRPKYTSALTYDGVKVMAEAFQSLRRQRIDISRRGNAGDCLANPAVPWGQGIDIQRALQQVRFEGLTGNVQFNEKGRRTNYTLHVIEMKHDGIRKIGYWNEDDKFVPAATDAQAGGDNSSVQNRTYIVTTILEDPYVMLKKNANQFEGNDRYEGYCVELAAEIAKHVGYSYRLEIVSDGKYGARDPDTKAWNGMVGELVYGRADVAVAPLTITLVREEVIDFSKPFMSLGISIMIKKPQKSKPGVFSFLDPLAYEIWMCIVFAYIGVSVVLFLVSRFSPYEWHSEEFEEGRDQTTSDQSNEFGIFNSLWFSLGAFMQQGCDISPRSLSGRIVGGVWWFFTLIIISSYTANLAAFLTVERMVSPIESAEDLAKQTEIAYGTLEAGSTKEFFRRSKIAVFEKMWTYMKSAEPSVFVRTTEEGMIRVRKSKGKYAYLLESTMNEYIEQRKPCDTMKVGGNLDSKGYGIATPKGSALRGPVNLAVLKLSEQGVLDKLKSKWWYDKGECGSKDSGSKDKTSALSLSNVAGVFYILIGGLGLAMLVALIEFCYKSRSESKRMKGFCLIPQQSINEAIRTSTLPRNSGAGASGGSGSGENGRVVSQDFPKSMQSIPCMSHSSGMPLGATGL
UniProt P23819, residues 25-883: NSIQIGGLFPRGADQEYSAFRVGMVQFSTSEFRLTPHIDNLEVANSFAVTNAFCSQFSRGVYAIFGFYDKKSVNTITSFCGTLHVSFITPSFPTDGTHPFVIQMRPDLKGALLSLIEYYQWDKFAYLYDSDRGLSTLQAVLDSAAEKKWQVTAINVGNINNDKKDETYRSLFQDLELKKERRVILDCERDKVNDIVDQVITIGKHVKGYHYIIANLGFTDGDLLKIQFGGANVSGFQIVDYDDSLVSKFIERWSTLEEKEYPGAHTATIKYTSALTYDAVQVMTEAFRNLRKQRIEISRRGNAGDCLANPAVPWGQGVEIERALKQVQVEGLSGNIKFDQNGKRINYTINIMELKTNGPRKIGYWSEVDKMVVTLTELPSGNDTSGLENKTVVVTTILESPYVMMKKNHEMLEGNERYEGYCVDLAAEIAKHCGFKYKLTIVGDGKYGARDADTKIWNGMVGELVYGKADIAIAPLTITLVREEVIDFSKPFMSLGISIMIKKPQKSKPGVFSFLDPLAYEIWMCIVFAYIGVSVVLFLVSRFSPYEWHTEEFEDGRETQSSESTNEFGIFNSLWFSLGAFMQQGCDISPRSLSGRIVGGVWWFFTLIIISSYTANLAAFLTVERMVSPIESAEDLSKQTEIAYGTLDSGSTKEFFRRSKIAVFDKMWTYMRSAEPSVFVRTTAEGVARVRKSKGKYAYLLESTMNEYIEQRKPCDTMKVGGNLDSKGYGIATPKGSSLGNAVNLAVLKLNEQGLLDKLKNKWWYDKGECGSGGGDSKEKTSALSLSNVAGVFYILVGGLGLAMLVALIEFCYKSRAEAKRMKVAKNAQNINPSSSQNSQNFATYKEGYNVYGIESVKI

Test [1] has as its target endogenous GluA1 (mouse brain) (mouse (endogenous in P0 brain)) (UniProt P23818). As to the kind of experiment: co-IP; whole-brain lysate of P0 mouse (1% Triton X-100 lysis buffer, sonicated); 2 mg total protein with 4 ug mouse anti-GluA1 (RH95) or anti-GluA2 (6C4) overnight at 4 C, protein A/G agarose; endogenous NSG2 detected.
Test [2] addresses endogenous GluA2 (mouse brain) (mouse (endogenous in P0 brain)) (UniProt P23819). Described as above.

These are yes or no findings as the source states them, for the method shown. In cells and extracts the contact can be indirect. Some binding calls cover weakened binding; strength is not graded here.

B1: endogenous NSG2 (mouse brain) (protein, UniProt P47759 1-171)
chain: MVKLNSNPGEKGAKPPSVEDGFQTVPLITPLEVNHLQLAAPEKVIVKTRTEYQPEQRNKGKFRVPKIAEFTVTILVSLALAFLACIVFLVVYKAFTYDHSCPEGFVYKHKRCIPASLDAYYSSQDPSSRSRFYTVISHYSVAKQSTARAIGPWLSAAAVIHEPKPPKTQGH
Turning to B1, the binding result in test [1] and in test [2] was “binds” throughout.
